At least one read-out could not be matched to a standard name with certainty.
Test system: Haemunchus contortus
Assay: Anthelmintic activity in lambs artificially infected with abomasal nematodes (coproscopy up to 14 days after application, then necropsy with helminthological work-up)
Type: in vivo
Details: Lämmer 30 bis 40 kg
Text: Die anthelminthische Wirkung der Elaiophylinderivate wurde an Lämmern mit 30 bis 40 kg Körpergewicht untersucht. Dazu wurden die Lämmer artifiziell mit Infektionsstadien von Labmagennematoden (Haemunchus contortus) infiziert. Nach Abschluß der Entwicklungszeit (Präpatenzperiode) der Nematoden erfolgte die Applikation der Elaiophylinderivate.
Durch koproskopische Untersuchungen vor und bis zu 14 Tagen nach der Applikation der Elaiophylinderivate und anschließender Sektion mit helminthologischer Aufarbeitung wurde die prozentuale Reduktion der Schaf-Nematoden ermittelt (s. Tabelle 7). Als Vergleichssubstanz diente Elaiophylin. Zusätzlich wurde auch noch die antibakterielle Aktivität der erfindungsgemäßen Elaiophylinderivate gegen Staph. aureus und Strept. pyogenes ermittelt. Überraschenderweise zeigen die erfindungsgemäßen Verbindung keine oder nur sehr geringe antibakterielle Aktivität. Gerade deshalb eignen sich die erfindungsgemäßen Verbindungen insbesondere für den Einsatz als Anthelminthika, da hier eine antibakterielle Wirkung unerwünscht ist.

In the case of `CCC1C(C)OC(O)(C(C)C(O)C(C)C2OC(=O)/C=C/C=C/C(C)C(C(C)C(O)C(C)C3(O)CC(OC4CC(O)C(O)C(C)O4)C(CC)C(C)O3)OC(=O)/C=C/C=C/C2C)CC1OC1CC(O)C(O)C(C)O1` (centres unmarked) [Elaiophylin], the “Reduktion v. H. contortus (%)” value (Dosierung 2,5 mg/kg (s.c.)) is reported as 35-45% and the “Reduktion v. H. contortus (%)” value (Dosierung 5,0 mg/kg (oral)) is reported as 70-95%.
